Drawing on article PMC10506284, this text covers binding for one substance.

Protein sequences, listed by entry. Tags and fused reporters are not part of them.
UniProt P08670: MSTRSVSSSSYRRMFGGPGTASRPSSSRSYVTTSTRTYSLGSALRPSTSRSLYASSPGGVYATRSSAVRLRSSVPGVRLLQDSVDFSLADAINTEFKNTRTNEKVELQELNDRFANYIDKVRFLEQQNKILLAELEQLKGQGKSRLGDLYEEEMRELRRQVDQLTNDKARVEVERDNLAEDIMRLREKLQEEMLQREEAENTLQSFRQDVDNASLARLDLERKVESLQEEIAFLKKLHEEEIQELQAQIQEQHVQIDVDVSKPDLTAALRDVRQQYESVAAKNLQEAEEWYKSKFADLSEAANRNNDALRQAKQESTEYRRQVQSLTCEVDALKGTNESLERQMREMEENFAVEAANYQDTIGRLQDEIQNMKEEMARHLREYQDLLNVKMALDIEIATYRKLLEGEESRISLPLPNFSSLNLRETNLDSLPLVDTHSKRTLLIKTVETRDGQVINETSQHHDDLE

This experiment concerns the target T1, HA-tagged Ladinin-1 (LAD1), full-length open reading frame (human) (UniProt O00515).
T1 sequence: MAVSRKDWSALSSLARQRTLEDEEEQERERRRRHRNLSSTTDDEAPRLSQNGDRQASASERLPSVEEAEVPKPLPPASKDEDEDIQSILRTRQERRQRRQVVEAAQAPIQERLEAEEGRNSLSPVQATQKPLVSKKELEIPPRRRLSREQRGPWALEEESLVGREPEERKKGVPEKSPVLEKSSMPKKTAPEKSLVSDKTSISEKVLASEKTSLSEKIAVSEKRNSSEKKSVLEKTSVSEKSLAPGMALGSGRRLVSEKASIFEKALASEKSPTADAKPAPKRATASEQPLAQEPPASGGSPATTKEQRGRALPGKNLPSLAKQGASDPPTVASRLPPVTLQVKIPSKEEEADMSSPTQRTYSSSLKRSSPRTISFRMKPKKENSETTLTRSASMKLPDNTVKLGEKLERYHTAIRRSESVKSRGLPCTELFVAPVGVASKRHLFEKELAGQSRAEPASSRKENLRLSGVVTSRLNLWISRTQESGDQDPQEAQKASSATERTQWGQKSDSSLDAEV
Put plainly: affinity purification with mass spectrometry; HA immunoprecipitate from MGC803 cells overexpressing HA-LAD1, SDS-PAGE, bands close to 50-70 kDa excised and identified by mass spectrometry.

Results are given in words; binding and its absence hold for the method and conditions named. In cells and extracts the contact can be indirect. These calls come from enrichment with a bait or labelling near it, and not all partners need be listed. Sequences can lack the tags named with a protein.

Consider “Vimentin, endogenous in MGC803 cells (from UniProt P08670 1-466)”, for which the binding entry is “binds”.
